Test results published in article PMC4619598.
These are yes or no findings as the source states them, for the method shown. For some of these results: In cells and extracts the contact can be indirect. Some results given as binding are weak or reduced against the parent protein; the word gives no strength. Sequences can lack the tags named with a protein.

Experiments:
[1] = biological target: T1, ROS1 (full length) fused with split luciferase (Arabidopsis thaliana) (UniProt Q9SJQ6); assay: split reporter; split luciferase, constructs co-transfected into Arabidopsis protoplasts, overnight incubation; empty vectors as negative control; CCD camera
T1 sequence: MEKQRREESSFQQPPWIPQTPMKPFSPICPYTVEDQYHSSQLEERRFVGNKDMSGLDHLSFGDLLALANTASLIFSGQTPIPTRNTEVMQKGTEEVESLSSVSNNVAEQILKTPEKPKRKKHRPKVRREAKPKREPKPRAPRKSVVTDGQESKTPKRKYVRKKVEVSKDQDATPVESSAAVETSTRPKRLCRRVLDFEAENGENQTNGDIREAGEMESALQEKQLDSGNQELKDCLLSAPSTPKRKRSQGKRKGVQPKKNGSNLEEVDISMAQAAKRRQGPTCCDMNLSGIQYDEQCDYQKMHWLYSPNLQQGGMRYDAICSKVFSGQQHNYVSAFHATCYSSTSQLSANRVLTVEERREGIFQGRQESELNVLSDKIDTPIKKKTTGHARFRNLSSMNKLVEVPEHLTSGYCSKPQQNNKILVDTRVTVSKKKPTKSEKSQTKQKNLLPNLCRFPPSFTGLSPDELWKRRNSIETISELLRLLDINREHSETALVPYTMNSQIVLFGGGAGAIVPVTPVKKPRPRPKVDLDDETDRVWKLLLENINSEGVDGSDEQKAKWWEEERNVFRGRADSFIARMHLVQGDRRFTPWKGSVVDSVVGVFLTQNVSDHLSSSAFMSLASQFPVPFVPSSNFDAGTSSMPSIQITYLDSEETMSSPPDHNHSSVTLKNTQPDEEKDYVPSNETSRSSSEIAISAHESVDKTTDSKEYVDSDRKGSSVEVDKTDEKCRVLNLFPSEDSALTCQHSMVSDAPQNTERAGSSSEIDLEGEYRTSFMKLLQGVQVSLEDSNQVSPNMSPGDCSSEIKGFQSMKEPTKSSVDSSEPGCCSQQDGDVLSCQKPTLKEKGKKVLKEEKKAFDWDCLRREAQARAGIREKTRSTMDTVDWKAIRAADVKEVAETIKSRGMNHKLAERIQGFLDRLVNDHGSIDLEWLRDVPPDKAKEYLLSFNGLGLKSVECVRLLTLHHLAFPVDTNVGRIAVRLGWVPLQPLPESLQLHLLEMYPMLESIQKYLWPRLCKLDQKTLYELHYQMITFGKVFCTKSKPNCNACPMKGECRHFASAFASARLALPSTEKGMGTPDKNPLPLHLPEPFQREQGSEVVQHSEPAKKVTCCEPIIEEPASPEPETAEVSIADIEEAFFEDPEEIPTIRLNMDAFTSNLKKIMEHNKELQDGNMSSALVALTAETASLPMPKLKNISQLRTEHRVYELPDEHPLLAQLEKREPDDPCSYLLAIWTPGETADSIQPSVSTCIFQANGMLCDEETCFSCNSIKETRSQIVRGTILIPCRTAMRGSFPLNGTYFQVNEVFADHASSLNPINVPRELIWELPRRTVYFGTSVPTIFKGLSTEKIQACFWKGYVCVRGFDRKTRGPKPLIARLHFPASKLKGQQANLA

[2] = biological target: T2, AE7 fused with split luciferase (Arabidopsis thaliana) (UniProt Q9C9G6); assay: as above
T2 sequence: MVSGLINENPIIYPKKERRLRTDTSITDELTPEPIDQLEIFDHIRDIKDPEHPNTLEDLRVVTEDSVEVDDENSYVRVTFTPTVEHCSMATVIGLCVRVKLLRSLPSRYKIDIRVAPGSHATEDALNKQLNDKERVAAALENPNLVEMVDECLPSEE

[3] = biological target: T1, ROS1 (full length) fused with split luciferase (Arabidopsis thaliana); assay: split reporter; split luciferase in Nicotiana benthamiana (tobacco) leaves, 3 day-post-infiltration; empty vectors as negative control; CCD camera
[4] = biological target: T3, ROS1 in the BD vector (Arabidopsis thaliana) (UniProt Q9SJQ6); assay: two-hybrid; yeast two-hybrid, pDEST 22 (AD) and pDEST 32 (BD); growth on SD-L/T/H media
T3 sequence: T1 sequence

[5] = biological target: T4, AE7 in the BD vector (Arabidopsis thaliana) (UniProt Q9C9G6); assay: as above
T4 sequence: T2 sequence

[6] = biological target: T5, ROS1 in the BD vector (Arabidopsis thaliana), Q9SJQ6; assay: as above; conditions: remark: other sources report otherwise
T5 chain: T1 sequence

[7] = biological target: T6, ROS1 (full length) fused with split luciferase (Arabidopsis thaliana), Q9SJQ6; assay: split reporter; split luciferase, constructs co-transfected into Arabidopsis protoplasts, overnight incubation; empty vectors as negative control; CCD camera; conditions: remark: other sources report otherwise
T6 chain: T1 sequence

B1: MET18 fused with split luciferase (protein, UniProt Q0WVF8 1-1134)
chain: MMVEPNQLVQHLETFVDTNRSSSQQDDSLKAIASSLENDSLSITQLVREMEMYLTTTDNLVRARGILLLAEILDCLKAKPLNDTIVHTLVGFFSEKLADWRAMCGALVGCLALLKRKDVAGVVTDIDVQAMAKSMIQNVQVQALALHERKLAFELLECLLQQHSEAILTMGDLLVYAMCEAIDGEKDPQCLMIVFHLVELLAPLFPSPSGPLASDASDLFEVIGCYFPLHFTHTKDDEANIRREDLSRGLLLAISSTPFFEPYAIPLLLEKLSSSLPVAKVDSLKCLKDCALKYGVDRMKKHYGALWSALKDTFYSSTGTHLSFAIESLTSPGFEMNEIHRDAVSLLQRLVKQDISFLGFVVDDTRINTVFDTIYRYPQYKEMPDPSKLEVLVISQILSVSAKASVQSCNIIFEAIFFRLMNTLGIVEKTSTGDVVQNGNSTVSTRLYHGGLHLCIELLAASKDLILGFEECSPTSGCANSGCSMVKSFSVPLIQVFTSAVCRSNDDSVVDVYLGVKGLLTMGMFRGGSSPVSRTEFENILVTLTSIITAKSGKTVVWELALKALVCIGSFIDRYHESDKAMSYMSIVVDNLVSLACSSHCGLPYQMILEATSEVCSTGPKYVEKMVQGLEEAFCSSLSDFYVNGNFESIDNCSQLLKCLTNKLLPRVAEIDGLEQLLVHFAISMWKQIEFCGVFSCDFNGREFVEAAMTTMRQVVGIALVDSQNSIIQKAYSVVSSCTLPAMESIPLTFVALEGLQRDLSSRDELILSLFASVIIAASPSASIPDAKSLIHLLLVTLLKGYIPAAQALGSMVNKLGSGSGGTNTSRDCSLEEACAIIFHADFASGKKISSNGSAKIIVGSETTMSKICLGYCGSLDLQTRAITGLAWIGKGLLMRGNERVNEIALVLVECLKSNNCSGHALHPSAMKHAADAFSIIMSDSEVCLNRKFHAVIRPLYKQRCFSTIVPILESLIMNSQTSLSRTMLHVALAHVISNVPVTVILDNTKKLQPLILEGLSVLSLDSVEKETLFSLLLVLSGTLTDTKGQQSASDNAHIIIECLIKLTSYPHLMVVRETSIQCLVALLELPHRRIYPFRREVLQAIEKSLDDPKRKVREEAIRCRQAWASITSGSNIF
Which results are given for B1?
binding [1]: binds; binding [2]: binds; binding [3]: binds

B2: MET18 in the AD vector (protein, UniProt Q0WVF8 1-1134)
chain: B1 chain
B2 was tested. Which binding [4] did it give?
Its binding is “binds”.

And the binding [5]?
Its binding is “binds”.

B3: AE7 in the AD vector, Q9C9G6 1-157 (protein)
chain: T2 sequence
For B3, which binding [6] is on record?
The binding was “binds”.

B4: AE7 fused with split luciferase, Q9C9G6 1-157 (protein)
chain: T2 sequence
B4 was tested. Which binding [7] did it give?
The binding was “binds”.
